{"source": "PubChem BioAssay AID686938 (Drosophila RNAi Screening Center, 2013)", "test": "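Knock-downs reducing store-operated calcium influx in Drosophila cells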 (primary screen)", "cells": "Drosophila S2R+ cells", "reagents": "long dsRNA against Drosophila genes, about 0.25 µg dsRNA per well, roughly 10,000 cells", "timing": "5 days of knock-down before the calcium assay", "conditions": "thapsigargin (SERCA pump blocker) to empty calcium stores; entry signal taken 4 min after adding it", "detection": "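Per-well fluo-4 fluorescence in two replicates, unnormalised, measured in resting cells and 4 min after store depletion by the SERCA blocker thapsigargin; ratio of the two present in few wells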", "direction": "calcium entry signal: higher = stronger calcium signal after store depletion; entry to resting ratio: higher = more calcium entry relative to resting level; resting calcium signal: higher = higher resting calcium signal", "units": "calcium entry signal in fluorescence units; resting calcium signal in fluorescence units", "hit rule": "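Called when the plate z-score of the entry-to-rest ratio, mean of duplicates, falls below −3; wells with low overall dye signal (Fmax z below −2) or more than five off-targets excluded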", "meaning of the calls": "active = strongly reduced calcium entry; inactive = no strong reduction", "note": "The deposit covers about 23,000 reagents; below is an unselected part of those with a known target gene and a result. Over the whole deposit, 75 (0.33%) are marked active. 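Raw plate signals without normalisation; calls rest on plate z-scores that were not deposited; ratio present for only 364 wells.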 Unmarked entries are inactive. The record does not give: the dose of the treatment."}
{"gene": "CG5592", "DRSC id": "DRSC10524", "calcium entry signal, replicate 1": 1.73e7, "calcium entry signal, replicate 2": 4.82e7, "resting calcium signal, replicate 1": 8.32e6, "resting calcium signal, replicate 2": 1.89e7}
{"gene": "Polr3F (RNA polymerase III subunit F)", "DRSC id": "DRSC15785", "calcium entry signal, replicate 1": 2.73e7, "calcium entry signal, replicate 2": 3.18e7, "resting calcium signal, replicate 1": 5.40e7, "resting calcium signal, replicate 2": 1.38e7}
{"gene": "pen-2 (presenilin enhancer)", "DRSC id": "DRSC05722", "calcium entry signal, replicate 1": 2.52e7, "calcium entry signal, replicate 2": 5.65e7, "resting calcium signal, replicate 1": 1.32e7, "resting calcium signal, replicate 2": 2.66e7}
{"gene": "Taf5 (TBP-associated factor 5)", "DRSC id": "DRSC07562", "calcium entry signal, replicate 1": 3.40e7, "calcium entry signal, replicate 2": 2.74e7, "resting calcium signal, replicate 1": 1.63e7, "resting calcium signal, replicate 2": 1.43e7}
{"gene": "mav (maverick)", "DRSC id": "DRSC17149", "calcium entry signal, replicate 1": 6.20e7, "calcium entry signal, replicate 2": 5.47e7, "entry to resting ratio": 2.1, "resting calcium signal, replicate 1": 3.00e7, "resting calcium signal, replicate 2": 2.32e7}
{"gene": "lig (lingerer)", "DRSC id": "DRSC07246", "calcium entry signal, replicate 1": 4.85e7, "calcium entry signal, replicate 2": 3.07e7, "resting calcium signal, replicate 1": 2.11e7, "resting calcium signal, replicate 2": 1.40e7}
{"gene": "lig (lingerer)", "DRSC id": "DRSC07247", "calcium entry signal, replicate 1": 3.01e7, "calcium entry signal, replicate 2": 3.86e7, "resting calcium signal, replicate 1": 1.52e7, "resting calcium signal, replicate 2": 1.84e7}
{"gene": "Mos (Mos oncogene)", "DRSC id": "DRSC07258", "calcium entry signal, replicate 1": 3.32e7, "calcium entry signal, replicate 2": 4.46e7, "resting calcium signal, replicate 1": 1.78e7, "resting calcium signal, replicate 2": 2.03e7}
{"gene": "CG8834", "DRSC id": "DRSC07283", "calcium entry signal, replicate 1": 3.23e7, "calcium entry signal, replicate 2": 3.69e7, "resting calcium signal, replicate 1": 1.69e7, "resting calcium signal, replicate 2": 1.77e7}
{"gene": "Smyd4-4 (SET and MYND domain containing, class 4, member 4)", "DRSC id": "DRSC05956", "calcium entry signal, replicate 1": 3.97e7, "calcium entry signal, replicate 2": 4.33e7, "resting calcium signal, replicate 1": 1.79e7, "resting calcium signal, replicate 2": 2.03e7}
{"gene": "CG3597", "DRSC id": "DRSC00617", "calcium entry signal, replicate 1": 3.54e7, "calcium entry signal, replicate 2": 3.02e7, "resting calcium signal, replicate 1": 1.69e7, "resting calcium signal, replicate 2": 1.37e7}
{"gene": "Pomp", "DRSC id": "DRSC03201", "calcium entry signal, replicate 1": 8.11e6, "resting calcium signal, replicate 1": 6.69e6}
{"gene": "CG18088", "DRSC id": "DRSC02654", "calcium entry signal, replicate 1": 2.62e7, "calcium entry signal, replicate 2": 3.41e7, "resting calcium signal, replicate 1": 1.29e7, "resting calcium signal, replicate 2": 1.71e7}
{"gene": "CG9517 (retired record)", "DRSC id": "DRSC20192", "calcium entry signal, replicate 1": 2.94e7, "calcium entry signal, replicate 2": 3.19e7, "resting calcium signal, replicate 1": 1.59e7, "resting calcium signal, replicate 2": 1.49e7}
{"gene": "CG9517 (retired record)", "DRSC id": "DRSC20193", "calcium entry signal, replicate 1": 3.40e7, "calcium entry signal, replicate 2": 2.85e7, "resting calcium signal, replicate 1": 1.76e7, "resting calcium signal, replicate 2": 1.43e7}
{"gene": "CG15362", "DRSC id": "DRSC00392", "calcium entry signal, replicate 1": 2.59e7, "calcium entry signal, replicate 2": 2.49e7, "resting calcium signal, replicate 1": 1.24e7, "resting calcium signal, replicate 2": 1.15e7}
{"gene": "CG16739", "DRSC id": "DRSC06621", "calcium entry signal, replicate 1": 4.12e7, "calcium entry signal, replicate 2": 4.69e7, "resting calcium signal, replicate 1": 1.79e7, "resting calcium signal, replicate 2": 2.12e7}
{"gene": "vret (vreteno)", "DRSC id": "DRSC15640", "calcium entry signal, replicate 1": 4.86e7, "calcium entry signal, replicate 2": 3.96e7, "resting calcium signal, replicate 1": 2.19e7, "resting calcium signal, replicate 2": 1.73e7}
{"gene": "CG14736", "DRSC id": "DRSC14956", "calcium entry signal, replicate 1": 3.17e7, "calcium entry signal, replicate 2": 2.46e7, "resting calcium signal, replicate 1": 1.57e7, "resting calcium signal, replicate 2": 1.32e7}
{"gene": "CG17597", "DRSC id": "DRSC02630", "calcium entry signal, replicate 1": 5.57e7, "resting calcium signal, replicate 1": 2.64e7}
{"gene": "CG33060", "DRSC id": "DRSC09939", "calcium entry signal, replicate 1": 4.91e7, "calcium entry signal, replicate 2": 6.72e7, "resting calcium signal, replicate 1": 2.19e7, "resting calcium signal, replicate 2": 3.02e7}
{"gene": "CG14565", "DRSC id": "DRSC11726", "calcium entry signal, replicate 1": 3.19e7, "calcium entry signal, replicate 2": 5.06e7, "resting calcium signal, replicate 1": 1.54e7, "resting calcium signal, replicate 2": 2.32e7}
{"gene": "TwdlZ (TweedleZ)", "DRSC id": "DRSC19154", "calcium entry signal, replicate 1": 3.27e7, "calcium entry signal, replicate 2": 4.25e7, "resting calcium signal, replicate 1": 1.74e7, "resting calcium signal, replicate 2": 1.83e7}
{"gene": "Pebp1 (Phosphatidylethanolamine-binding protein 1)", "DRSC id": "DRSC15354", "calcium entry signal, replicate 1": 2.60e7, "calcium entry signal, replicate 2": 3.44e7, "resting calcium signal, replicate 1": 6.68e7, "resting calcium signal, replicate 2": 1.51e7}
{"gene": "KrT95D (Krueppel target at 95D)", "DRSC id": "DRSC16725", "calcium entry signal, replicate 1": 2.14e7, "calcium entry signal, replicate 2": 2.20e7, "resting calcium signal, replicate 1": 1.00e7, "resting calcium signal, replicate 2": 1.10e7}
{"gene": "CG32266", "DRSC id": "DRSC08062", "calcium entry signal, replicate 1": 3.04e7, "calcium entry signal, replicate 2": 4.10e7, "resting calcium signal, replicate 1": 1.70e7, "resting calcium signal, replicate 2": 1.89e7}
{"gene": "CG30099", "DRSC id": "DRSC07039", "calcium entry signal, replicate 1": 5.51e7, "calcium entry signal, replicate 2": 5.30e7, "resting calcium signal, replicate 1": 2.19e7, "resting calcium signal, replicate 2": 2.57e7}

In a second layout: entries from further up.
Taf5 (TBP-associated factor 5) [DRSC07562]
- calcium entry signal, replicate 1: 3.40e7
- calcium entry signal, replicate 2: 2.74e7
- resting calcium signal, replicate 1: 1.63e7
- resting calcium signal, replicate 2: 1.43e7

mav (maverick) [DRSC17149]
- calcium entry signal, replicate 1: 6.20e7
- calcium entry signal, replicate 2: 5.47e7
- entry to resting ratio: 2.1
- resting calcium signal, replicate 1: 3.00e7
- resting calcium signal, replicate 2: 2.32e7
